Data taken from publication PMC11612400.
Results are given in words; binding and its absence hold for the method and conditions named. Binding seen in cells or lysates may run through a third protein. Here binding means that the protein was enriched with, or labelled near, the bait; the list need not be complete.

Amino acid sequences for entries named in this document (tags omitted).
UniProt P67936: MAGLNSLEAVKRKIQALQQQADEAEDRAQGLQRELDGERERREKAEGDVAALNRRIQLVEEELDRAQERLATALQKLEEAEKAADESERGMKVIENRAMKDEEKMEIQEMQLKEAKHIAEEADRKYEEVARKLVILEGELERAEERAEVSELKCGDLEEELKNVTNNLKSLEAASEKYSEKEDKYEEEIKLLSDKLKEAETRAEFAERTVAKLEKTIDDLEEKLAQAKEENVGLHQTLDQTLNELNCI
UniProt P12814: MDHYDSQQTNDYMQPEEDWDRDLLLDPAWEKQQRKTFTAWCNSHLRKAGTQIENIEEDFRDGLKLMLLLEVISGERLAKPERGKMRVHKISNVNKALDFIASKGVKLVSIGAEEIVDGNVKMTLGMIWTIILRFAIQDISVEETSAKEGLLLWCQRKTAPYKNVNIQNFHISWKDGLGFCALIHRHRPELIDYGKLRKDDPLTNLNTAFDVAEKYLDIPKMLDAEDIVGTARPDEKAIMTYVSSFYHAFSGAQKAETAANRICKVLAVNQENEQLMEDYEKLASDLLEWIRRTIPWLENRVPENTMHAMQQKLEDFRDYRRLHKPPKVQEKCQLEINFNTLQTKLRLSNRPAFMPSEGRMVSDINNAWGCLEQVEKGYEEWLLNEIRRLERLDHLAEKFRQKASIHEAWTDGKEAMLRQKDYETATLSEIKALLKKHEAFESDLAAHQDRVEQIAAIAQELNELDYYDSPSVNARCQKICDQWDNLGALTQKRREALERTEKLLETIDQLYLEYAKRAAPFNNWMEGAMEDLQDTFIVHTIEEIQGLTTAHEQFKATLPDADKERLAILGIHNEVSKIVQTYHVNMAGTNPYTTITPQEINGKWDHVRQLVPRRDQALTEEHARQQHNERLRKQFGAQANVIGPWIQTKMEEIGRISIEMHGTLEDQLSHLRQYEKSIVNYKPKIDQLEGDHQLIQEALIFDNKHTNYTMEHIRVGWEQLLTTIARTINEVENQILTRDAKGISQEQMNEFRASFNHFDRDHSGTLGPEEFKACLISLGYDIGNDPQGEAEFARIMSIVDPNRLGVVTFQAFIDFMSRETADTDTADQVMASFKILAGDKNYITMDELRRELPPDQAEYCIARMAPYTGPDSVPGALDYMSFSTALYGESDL
UniProt O00151: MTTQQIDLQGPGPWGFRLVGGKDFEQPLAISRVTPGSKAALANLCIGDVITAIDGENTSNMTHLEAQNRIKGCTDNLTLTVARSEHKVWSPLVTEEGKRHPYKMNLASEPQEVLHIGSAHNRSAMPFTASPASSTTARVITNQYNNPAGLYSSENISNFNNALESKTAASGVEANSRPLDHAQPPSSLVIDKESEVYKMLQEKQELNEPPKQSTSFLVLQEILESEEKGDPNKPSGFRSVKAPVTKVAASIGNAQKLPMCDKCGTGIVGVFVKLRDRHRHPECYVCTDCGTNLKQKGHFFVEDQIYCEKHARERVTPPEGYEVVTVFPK

How the values were obtained:
Experiment in all cases: proximity labelling; TurboID fusions transiently expressed in MDA-MB-231 cells; 50 μmol/L biotin for 10 min; RIPA lysate on streptavidin magnetic beads; mass spectrometry; hits of the empty Turbo group subtracted
[1] = target: TPM4-TurboID (UniProt P67936)
[2] = target: α-actinin1-TurboID (UniProt P12814)
[3] = target: T1, ArgBP2-TurboID (UniProt O94875)
T1 sequence: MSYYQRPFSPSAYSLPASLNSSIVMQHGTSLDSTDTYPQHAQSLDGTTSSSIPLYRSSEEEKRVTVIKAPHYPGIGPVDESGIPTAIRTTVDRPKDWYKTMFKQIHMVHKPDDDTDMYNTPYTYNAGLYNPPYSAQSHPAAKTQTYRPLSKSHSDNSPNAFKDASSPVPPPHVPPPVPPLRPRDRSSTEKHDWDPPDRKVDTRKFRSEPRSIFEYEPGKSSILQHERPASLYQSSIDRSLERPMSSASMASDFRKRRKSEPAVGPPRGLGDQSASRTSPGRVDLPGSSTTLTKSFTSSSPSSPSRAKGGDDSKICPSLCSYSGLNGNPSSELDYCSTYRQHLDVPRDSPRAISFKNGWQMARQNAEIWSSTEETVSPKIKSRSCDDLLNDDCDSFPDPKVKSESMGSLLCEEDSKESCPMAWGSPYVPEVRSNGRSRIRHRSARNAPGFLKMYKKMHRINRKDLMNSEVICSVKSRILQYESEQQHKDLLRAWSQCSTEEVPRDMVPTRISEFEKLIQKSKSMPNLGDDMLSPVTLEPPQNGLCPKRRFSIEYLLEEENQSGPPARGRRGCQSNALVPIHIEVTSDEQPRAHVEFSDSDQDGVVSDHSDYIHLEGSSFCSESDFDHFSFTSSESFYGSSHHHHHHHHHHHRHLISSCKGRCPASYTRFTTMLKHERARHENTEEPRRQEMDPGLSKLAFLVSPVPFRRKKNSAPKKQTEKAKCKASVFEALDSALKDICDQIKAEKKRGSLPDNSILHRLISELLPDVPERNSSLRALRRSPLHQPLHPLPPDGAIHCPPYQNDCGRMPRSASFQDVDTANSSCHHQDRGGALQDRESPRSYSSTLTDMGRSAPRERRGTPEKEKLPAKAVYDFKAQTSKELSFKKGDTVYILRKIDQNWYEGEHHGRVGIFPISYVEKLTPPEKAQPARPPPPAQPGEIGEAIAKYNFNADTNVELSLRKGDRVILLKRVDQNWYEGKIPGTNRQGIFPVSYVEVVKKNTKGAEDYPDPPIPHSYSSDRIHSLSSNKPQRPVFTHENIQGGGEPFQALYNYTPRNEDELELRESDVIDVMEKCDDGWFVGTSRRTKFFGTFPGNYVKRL

[4] = target: PDLIM1-TurboID (UniProt O00151)

Measured: binding

B1: PFKM (phosphofructokinase muscle type), endogenous (enzyme, UniProt P08237 1-780)
chain: MTHEEHHAAKTLGIGKAIAVLTSGGDAQGMNAAVRAVVRVGIFTGARVFFVHEGYQGLVDGGDHIKEATWESVSMMLQLGGTVIGSARCKDFREREGRLRAAYNLVKRGITNLCVIGGDGSLTGADTFRSEWSDLLSDLQKAGKITDEEATKSSYLNIVGLVGSIDNDFCGTDMTIGTDSALHRIMEIVDAITTTAQSHQRTFVLEVMGRHCGYLALVTSLSCGADWVFIPECPPDDDWEEHLCRRLSETRTRGSRLNIIIVAEGAIDKNGKPITSEDIKNLVVKRLGYDTRVTVLGHVQRGGTPSAFDRILGSRMGVEAVMALLEGTPDTPACVVSLSGNQAVRLPLMECVQVTKDVTKAMDEKKFDEALKLRGRSFMNNWEVYKLLAHVRPPVSKSGSHTVAVMNVGAPAAGMNAAVRSTVRIGLIQGNRVLVVHDGFEGLAKGQIEEAGWSYVGGWTGQGGSKLGTKRTLPKKSFEQISANITKFNIQGLVIIGGFEAYTGGLELMEGRKQFDELCIPFVVIPATVSNNVPGSDFSVGADTALNTICTTCDRIKQSAAGTKRRVFIIETMGGYCGYLATMAGLAAGADAAYIFEEPFTIRDLQANVEHLVQKMKTTVKRGLVLRNEKCNENYTTDFIFNLYSEEGKGIFDSRKNVLGHMQQGGSPTPFDRNFATKMGAKAMNWMSGKIKESYRNGRIFANTPDSGCVLGMRKRALVFQPVAELKDQTDFEHRIPKEQWWLKLRPILKILAKYEIDLDTSDHAHLEHITRKRSGEAAV
binds: all assays above
